The text below walks through data of US20170022553.

Sequences of proteins named here, by UniProt entry; tags and fusion partners are left off. Residues count along the entry.
UniProt P00582, 324-928: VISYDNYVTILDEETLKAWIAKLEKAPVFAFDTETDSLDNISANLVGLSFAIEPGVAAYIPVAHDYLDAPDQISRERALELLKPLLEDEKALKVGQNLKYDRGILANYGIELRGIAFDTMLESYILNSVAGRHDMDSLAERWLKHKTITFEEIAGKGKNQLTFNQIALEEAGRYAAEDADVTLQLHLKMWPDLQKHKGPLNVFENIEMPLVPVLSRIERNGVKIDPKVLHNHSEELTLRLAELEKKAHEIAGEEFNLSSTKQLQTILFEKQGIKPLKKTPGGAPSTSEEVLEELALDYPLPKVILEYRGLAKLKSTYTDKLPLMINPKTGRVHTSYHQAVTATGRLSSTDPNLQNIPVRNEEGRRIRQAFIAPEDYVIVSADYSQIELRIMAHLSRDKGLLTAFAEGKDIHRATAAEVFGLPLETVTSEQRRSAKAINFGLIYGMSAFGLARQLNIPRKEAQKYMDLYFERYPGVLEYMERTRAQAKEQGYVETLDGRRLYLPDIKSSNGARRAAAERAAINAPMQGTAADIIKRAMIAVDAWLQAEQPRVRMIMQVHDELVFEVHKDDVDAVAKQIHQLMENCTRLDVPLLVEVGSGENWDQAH

Construct, isoform or probe ends are uncertain for at least one entry. For some assays here: Tags and fusion partners may be left off the protein sequences shown.

The target of data set [1] is Klenow fragment (UniProt P00582). In words: SPR. The conditions noted are these: SPR imaging; binds with correct dNTP (A,T,G); little response with mismatched dNTP; 300 mM KCl, 1 mM SrCl2; purified recombinant protein; label: 5' biotin on template.
Another data set has as its system Bst 2.0 DNA polymerase. The experiment in a line: BLI. The conditions noted are these: ternary complex with correct dNTP; LS buffer + 150 mM NaCl, no Mg; 5 of 6 bases called; purified recombinant protein; label: 5' biotin on template.
The target in data set [2] is Klenow fragment (UniProt P00582). The experiment in a line: BLI. The conditions noted are these: 100 nM klenow, 1 mM SrCl2; only correct ternary complex stabilized in wash with 50 uM dNTP; purified recombinant protein; label: 5' biotin on template.
In data set [3] the target is Klenow fragment (3'->5' exo-) of E. coli DNA polymerase I (Escherichia coli) (UniProt P00582). The experiment in a line: BLI. The conditions noted are these: 3' inverted dT on template; strong with correct dNTP and Ni, Ba or Sr; Ni stabilizes ternary complex over 10 min; poor without dNTP; purified recombinant protein; protein details: Enzymatics P7010-LC-L; label: 5' biotin on ….

In data set [4] the target is T1, Bsu DNA polymerase I large fragment (Bacillus subtilis) (UniProt O34996).
T1 sequence (looked up, limits assumed): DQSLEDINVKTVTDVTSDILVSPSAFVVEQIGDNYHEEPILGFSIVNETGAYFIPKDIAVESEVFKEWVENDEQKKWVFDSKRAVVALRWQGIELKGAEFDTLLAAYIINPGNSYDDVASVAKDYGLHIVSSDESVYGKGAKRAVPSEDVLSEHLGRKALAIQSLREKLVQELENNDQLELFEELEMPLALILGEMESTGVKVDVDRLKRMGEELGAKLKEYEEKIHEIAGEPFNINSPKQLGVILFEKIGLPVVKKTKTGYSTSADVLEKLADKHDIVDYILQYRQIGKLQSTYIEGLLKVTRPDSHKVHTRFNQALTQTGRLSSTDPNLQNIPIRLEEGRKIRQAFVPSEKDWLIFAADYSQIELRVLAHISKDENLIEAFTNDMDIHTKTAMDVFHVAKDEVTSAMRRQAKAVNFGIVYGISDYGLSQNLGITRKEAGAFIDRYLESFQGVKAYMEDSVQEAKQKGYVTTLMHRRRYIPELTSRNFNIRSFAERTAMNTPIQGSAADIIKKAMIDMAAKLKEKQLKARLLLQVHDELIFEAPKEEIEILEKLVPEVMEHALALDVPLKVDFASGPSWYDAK
The experiment in a line: BLI. As to conditions: 3' inverted dT on template; deoxyinosine in primer [strand 2 position 29 deoxyinosine (written as G); strand 1 3' inverted dT (left out)]; dGTP, 1 mM Ni(II), 30 C; lower amplitude, higher kobs than ALK-G1; purified recombinant protein; protein details: New England Biolabs M0330L; label: 5' biotin on template; letters built from the parent sequence and the stated change.

Take “GGCAAATCACCAGAAGGCGGTTCCTGAATGAATGGGAAGCCTTCAAGAAGGTGATAAGCAGGAGAAACATACGAAGCATCATAACGATACCACTGACCCTC / GAGGGTCAGTGGTATCGTTATG [phiX_matchA/FP2 primer-template]”: the binding result with Klenow fragment [1] is recorded as “binds”. For “GGCAAATCACCAGAAGGCGGTTCCTGAATGAATGGGAAGCCTTCAAGAAGGTGATAAGCAGGAGAAACATACGAAGGCGCATAACGATACCACTGACCCTC / GAGGGTCAGTGGTATCGTTATG [phiX_matchC/FP2 primer-template]”, the binding result in the data set on Bst 2.0 DNA polymerase and with Klenow fragment [2] was “binds” each time. “GTGAGCCTGCAATCCCTGCCCCGGTTCATCCTGATGGAGCTCATGGCGGG / CCCGCCATGAGCTC [ALK C4493A/4496-4509AS primer-template]”: the binding result in data set [3] was “binds”.

As to “GTGAGCCTGCAATCCCTGCCCCGGTTCATCCTGCTGGAGCTCATGGCGGG / CCCGCCATGAGCTCCAGCAGGATGAACCGGGGCA [ALK-G3 primer-template]”, the binding result in data set [4] is recorded as “binds”.
